Binding data for 7 substances are collected here from article PMC9508095.

Amino acid sequences for entries named in this document (tags omitted). A change or cut given only in a name is not applied to a line headed by its entry.
UniProt Q96LW7: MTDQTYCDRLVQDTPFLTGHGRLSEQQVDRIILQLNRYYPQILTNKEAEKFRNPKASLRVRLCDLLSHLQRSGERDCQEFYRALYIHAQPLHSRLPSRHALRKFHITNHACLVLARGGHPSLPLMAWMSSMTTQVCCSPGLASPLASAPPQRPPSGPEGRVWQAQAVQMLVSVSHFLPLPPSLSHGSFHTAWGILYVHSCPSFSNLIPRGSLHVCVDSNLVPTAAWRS
UniProt Q7Z434: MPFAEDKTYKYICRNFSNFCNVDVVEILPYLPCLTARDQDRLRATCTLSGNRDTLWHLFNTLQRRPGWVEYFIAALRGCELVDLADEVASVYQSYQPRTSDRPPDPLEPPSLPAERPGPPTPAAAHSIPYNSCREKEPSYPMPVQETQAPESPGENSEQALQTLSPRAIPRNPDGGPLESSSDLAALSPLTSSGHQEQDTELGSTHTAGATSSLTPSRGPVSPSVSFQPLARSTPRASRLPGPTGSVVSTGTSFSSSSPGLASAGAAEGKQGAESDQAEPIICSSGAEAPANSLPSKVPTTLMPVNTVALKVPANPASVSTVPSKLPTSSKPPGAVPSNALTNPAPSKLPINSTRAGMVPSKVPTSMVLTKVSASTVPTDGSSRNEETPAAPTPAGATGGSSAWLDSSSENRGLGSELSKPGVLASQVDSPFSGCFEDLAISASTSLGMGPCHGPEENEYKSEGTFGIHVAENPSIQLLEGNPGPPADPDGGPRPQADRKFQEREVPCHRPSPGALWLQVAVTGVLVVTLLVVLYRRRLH
UniProt O95786: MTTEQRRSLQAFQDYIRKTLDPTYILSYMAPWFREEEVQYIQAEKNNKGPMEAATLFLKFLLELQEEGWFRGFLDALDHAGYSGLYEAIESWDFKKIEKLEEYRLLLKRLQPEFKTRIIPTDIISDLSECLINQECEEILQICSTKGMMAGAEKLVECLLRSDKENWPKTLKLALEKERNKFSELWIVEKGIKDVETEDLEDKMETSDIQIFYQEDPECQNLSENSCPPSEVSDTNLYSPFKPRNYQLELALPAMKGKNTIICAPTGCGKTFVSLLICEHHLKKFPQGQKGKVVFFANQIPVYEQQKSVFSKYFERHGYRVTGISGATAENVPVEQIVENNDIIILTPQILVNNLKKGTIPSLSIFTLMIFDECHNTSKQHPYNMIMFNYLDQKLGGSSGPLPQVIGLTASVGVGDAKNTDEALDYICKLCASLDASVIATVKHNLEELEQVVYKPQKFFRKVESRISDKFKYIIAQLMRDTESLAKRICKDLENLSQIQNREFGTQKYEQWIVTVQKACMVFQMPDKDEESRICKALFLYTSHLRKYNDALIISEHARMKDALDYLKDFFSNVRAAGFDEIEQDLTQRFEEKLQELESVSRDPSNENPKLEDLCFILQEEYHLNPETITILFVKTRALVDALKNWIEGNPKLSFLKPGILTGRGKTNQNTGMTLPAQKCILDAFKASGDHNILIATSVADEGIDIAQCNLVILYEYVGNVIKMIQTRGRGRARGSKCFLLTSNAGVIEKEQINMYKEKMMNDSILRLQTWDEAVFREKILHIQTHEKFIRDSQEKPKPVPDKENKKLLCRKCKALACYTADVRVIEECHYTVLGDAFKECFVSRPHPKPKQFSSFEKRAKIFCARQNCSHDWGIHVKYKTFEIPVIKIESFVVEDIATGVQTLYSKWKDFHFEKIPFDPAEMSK
UniProt P15682: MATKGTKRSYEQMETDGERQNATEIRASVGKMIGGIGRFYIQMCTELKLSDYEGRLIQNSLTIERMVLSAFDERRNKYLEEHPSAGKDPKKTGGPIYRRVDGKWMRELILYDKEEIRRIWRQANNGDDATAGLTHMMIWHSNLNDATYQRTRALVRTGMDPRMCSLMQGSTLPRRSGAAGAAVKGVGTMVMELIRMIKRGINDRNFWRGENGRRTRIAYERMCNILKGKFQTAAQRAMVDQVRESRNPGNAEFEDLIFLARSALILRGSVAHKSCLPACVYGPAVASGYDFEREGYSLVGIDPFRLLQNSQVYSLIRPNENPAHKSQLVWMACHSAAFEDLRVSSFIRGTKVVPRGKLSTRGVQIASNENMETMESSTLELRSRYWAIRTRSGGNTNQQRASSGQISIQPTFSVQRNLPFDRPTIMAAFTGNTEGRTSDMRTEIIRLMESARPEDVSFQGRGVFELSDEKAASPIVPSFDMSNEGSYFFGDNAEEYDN
UniProt Q14653: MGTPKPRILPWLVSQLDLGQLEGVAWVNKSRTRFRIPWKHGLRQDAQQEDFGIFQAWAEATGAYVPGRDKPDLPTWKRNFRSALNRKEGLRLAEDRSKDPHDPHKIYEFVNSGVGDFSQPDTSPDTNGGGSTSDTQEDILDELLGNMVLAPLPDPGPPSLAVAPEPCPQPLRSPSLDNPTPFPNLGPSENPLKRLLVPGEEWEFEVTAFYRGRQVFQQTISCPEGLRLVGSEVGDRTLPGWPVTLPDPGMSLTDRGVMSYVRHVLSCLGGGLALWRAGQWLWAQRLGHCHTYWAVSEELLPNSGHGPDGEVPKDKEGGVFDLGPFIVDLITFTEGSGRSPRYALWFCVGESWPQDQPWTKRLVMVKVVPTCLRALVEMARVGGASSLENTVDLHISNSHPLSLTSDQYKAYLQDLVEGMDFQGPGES
UniProt Q13114: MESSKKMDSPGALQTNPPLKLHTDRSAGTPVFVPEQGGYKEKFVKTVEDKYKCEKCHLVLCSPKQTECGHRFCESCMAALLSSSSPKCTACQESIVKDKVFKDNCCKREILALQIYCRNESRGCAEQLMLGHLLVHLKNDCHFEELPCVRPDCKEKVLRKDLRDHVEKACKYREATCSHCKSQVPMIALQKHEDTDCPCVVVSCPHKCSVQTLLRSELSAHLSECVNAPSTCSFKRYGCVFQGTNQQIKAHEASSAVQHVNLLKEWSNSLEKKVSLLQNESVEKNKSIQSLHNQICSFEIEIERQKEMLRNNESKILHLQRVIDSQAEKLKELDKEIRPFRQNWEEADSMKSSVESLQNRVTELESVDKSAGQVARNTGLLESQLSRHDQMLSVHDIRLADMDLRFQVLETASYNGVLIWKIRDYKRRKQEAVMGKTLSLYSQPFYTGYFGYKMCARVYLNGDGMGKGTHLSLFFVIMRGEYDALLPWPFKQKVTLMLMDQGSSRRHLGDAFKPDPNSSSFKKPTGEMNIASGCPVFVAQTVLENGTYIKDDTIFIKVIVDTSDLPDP

The target of assay [1] is Myc-tagged BinCARD1 (human) (UniProt Q96LW7). The assay can be described thus: co-IP; HEK293T co-transfected with the indicated plasmids, lysed 36 h p.t. in IP lysis buffer (Pierce), primary antibody then Protein G-Agarose at 4 °C, western blot; in some panels a third protein (BinCARD1 or TRAF3) was coexpressed. (Immunoblotting shows a protein as a band on a membrane.)
In assay [2] the target is Flag-tagged BinCARD1 (human) (UniProt Q96LW7). The assay can be described thus: co-IP.
The target of another assay is BinCARD1 (human) (UniProt Q96LW7). The assay can be described thus: co-IP.

These are yes or no findings as the source states them, for the method shown. In cells and extracts the contact can be indirect. A result given as binding can be weak or reduced; the word gives no strength.

Consider “Flag-tagged MAVS (from UniProt Q7Z434 1-540)”, for which the binding entry in assay [1] is “no binding”.

As to “Flag-tagged RIG-I (from UniProt O95786 1-925)”, the binding entry in assay [1] was “no binding”.

On to “NP of WSN (H1N1) virus in infected cells (from UniProt P15682 1-498)”, for which the binding result in assay [2] was “binds”.

For “endogenous IMP α7 (from UniProt O60684 1-536)”, in assay [2], the binding result is “binds”.

Consider “V5-tagged WSNNP (from UniProt P15682 1-498)”, for which the binding result (in the assay with BinCARD1 (human); in assay [2]) was “binds” in each case.

On to “Flag-tagged IRF3 (from UniProt Q14653 1-427)”, for which, in assay [1], the binding entry is “no binding”.

Take “Flag-tagged TRAF3 (from UniProt Q13114 1-568)”: the binding entry in assay [1] is reported as “binds”.
